Assay results reported in US20210352895A1, “SYNERGISTIC PESTICIDAL COMPOSITIONS AND METHODS FOR DELIVERY OF ACTIVE INGREDIENTS” (0903608 B.C. Ltd., priority 2018, published 2021).
The name of at least one read-out is uncertain.

Tests used:
Botrytis cinerea = experiment: Synergistic Growth Inhibition Assay (MIC / FIC index, resazurin, 96-well) on Botrytis cinerea; type: cell-based; details: Compound B alone
Experimental: In some embodiments, the synergistic action between the pesticidal active ingredient, and the at least one C4-C10 (or alternatively C11 or C12) saturated or unsaturated aliphatic acid components of the pesticidal compositions according to embodiments of the present disclosure was tested using a Synergistic Growth Inhibition Assay, which is derived from and related to a checkerboard assay as is known in the art for testing of combinations of antimicrobial agents. In the Synergistic Growth Inhibition Assay used in accordance with some embodiments of the present disclosure, multiple dilutions of combinations of pesticidal active ingredient and at least one C4-C10 saturated or unsaturated aliphatic acid agents are tested in individual cells for inhibitory activity against a target pest or pathogenic organism. In one such embodiment, the combinations of pesticidal active ingredient and C4-C10 (or alternatively C11 or C12) saturated or unsaturated aliphatic acid agents may preferably be tested in decreasing concentrations. In a further such embodiment, the combinations of pesticidal active ingredient and C4-C10 (or alternatively C11 or C12) saturated or unsaturated aliphatic acid agents may be tested in increasing concentrations. These multiple combinations of the pesticidal active ingredient and at least one C4-C10 (or alternatively C11 or C12) saturated or unsaturated aliphatic acid agents may be prepared in 96-well microtiter plates. In one such embodiment, the Synergistic Growth Inhibition Assay then comprises rows which each contain progressively decreasing concentrations of the pesticidal active ingredient and one or more C4-C10 (or alternatively C11 or C12) saturated or unsaturated aliphatic acid agents to test for the MIC of the agents in combination at which growth of the target pest or pathogen is inhibited. Thus, each well of the microtiter plate is a unique combination of the two agents, at which inhibitory efficacy of the combination against the target pest or pathogen can be determined.
In one embodiment according to the present disclosure, for each row of microtiter cells in the Synergistic Growth Inhibition Assay, the FIC index is calculated from the lowest concentration of the pesticidal active ingredient and one or more C4-C10 saturated or unsaturated aliphatic acid agents necessary to inhibit growth of a target pest or pathogen. The FIC of each component is derived by dividing the concentration of the agent present in that well of the microtiter plate by the minimal inhibitory concentration (MIC) needed of that agent alone to inhibit growth of the target pest or pathogen. The FIC index is then the sum of these values for both agents in that well of the microtiter plate. The FIC index is calculated for each row as follows: […]

Fusarium oxysporum = experiment: Synergistic Growth Inhibition Assay (MIC / FIC index, resazurin, 96-well) on Fusarium oxysporum; type: cell-based; details: Compound B alone; 24 hour incubation
Experimental: In some embodiments, the synergistic action between the pesticidal active ingredient, and the at least one C4-C10 (or alternatively C11 or C12) saturated or unsaturated aliphatic acid components of the pesticidal compositions according to embodiments of the present disclosure was tested using a Synergistic Growth Inhibition Assay, which is derived from and related to a checkerboard assay as is known in the art for testing of combinations of antimicrobial agents. […] Thus, each well of the microtiter plate is a unique combination of the two agents, at which inhibitory efficacy of the combination against the target pest or pathogen can be determined.
In one embodiment according to the present disclosure, for each row of microtiter cells in the Synergistic Growth Inhibition Assay, the FIC index is calculated from the lowest concentration of the pesticidal active ingredient and one or more C4-C10 saturated or unsaturated aliphatic acid agents necessary to inhibit growth of a target pest or pathogen. […] The FIC index is calculated for each row as follows: […]

| SMILES | MIC (B) (Botrytis cinerea; incubation period of 48 hours) [µg/mL] | MIC (B) (Botrytis cinerea; incubation period of 2 days) [µg/mL] | MIC (B) (Fusarium oxysporum) [µg/mL] |
| --- | --- | --- | --- |
| O=C(O)CCCCCCCO [8-hydroxyoctanoic acid] | 2500 | – | – |
| O=C(O)CCCCCCCCCCCO [12-hydroxydodecanoic acid] | 50 | 100 | – |
| CCCCCC(=O)O [Hexanoic acid, hexanoic acid] | 312.5 | – | 290 |
